± gives the standard deviation of the averaged measurements. This is one part of the list. Only hits are listed; about a third recur on repeated control peptides.

Amino acid sequences for entries named in this document (tags omitted).
MORF4L2, Q15014, UniProt Q15014, whole entry: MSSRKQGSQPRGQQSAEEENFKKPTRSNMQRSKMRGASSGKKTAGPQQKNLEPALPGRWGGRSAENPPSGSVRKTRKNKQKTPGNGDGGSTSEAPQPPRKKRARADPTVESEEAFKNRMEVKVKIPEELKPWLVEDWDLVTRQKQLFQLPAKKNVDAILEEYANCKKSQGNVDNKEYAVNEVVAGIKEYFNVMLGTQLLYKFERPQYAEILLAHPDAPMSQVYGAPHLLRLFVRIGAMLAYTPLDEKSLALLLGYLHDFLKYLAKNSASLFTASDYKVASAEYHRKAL
PIN1, Q13526, UniProt Q13526, whole entry: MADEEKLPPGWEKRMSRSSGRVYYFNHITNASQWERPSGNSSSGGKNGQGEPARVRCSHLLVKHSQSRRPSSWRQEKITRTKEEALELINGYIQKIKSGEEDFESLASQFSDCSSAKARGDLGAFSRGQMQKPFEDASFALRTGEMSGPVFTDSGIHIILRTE
PLK1, P53350, UniProt P53350, whole entry: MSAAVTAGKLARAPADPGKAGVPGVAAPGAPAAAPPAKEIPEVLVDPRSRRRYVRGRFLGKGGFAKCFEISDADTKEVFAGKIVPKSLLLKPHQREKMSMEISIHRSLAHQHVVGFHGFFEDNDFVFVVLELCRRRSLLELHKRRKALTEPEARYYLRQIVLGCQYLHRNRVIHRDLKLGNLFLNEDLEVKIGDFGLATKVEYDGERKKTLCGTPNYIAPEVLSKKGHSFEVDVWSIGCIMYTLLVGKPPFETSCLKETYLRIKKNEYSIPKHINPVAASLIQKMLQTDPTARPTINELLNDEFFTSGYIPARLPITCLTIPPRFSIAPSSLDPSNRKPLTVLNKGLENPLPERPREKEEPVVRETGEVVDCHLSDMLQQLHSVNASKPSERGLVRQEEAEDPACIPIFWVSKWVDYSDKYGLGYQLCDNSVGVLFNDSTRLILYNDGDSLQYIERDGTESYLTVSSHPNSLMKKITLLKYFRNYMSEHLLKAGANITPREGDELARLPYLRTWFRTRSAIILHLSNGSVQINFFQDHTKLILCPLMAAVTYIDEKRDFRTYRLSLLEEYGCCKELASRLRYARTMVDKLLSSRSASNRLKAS
CKS2, P33552, UniProt P33552, whole entry: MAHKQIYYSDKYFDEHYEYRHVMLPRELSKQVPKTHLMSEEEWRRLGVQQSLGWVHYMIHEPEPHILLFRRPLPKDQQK
KHDRBS1, Q07666, UniProt Q07666, whole entry: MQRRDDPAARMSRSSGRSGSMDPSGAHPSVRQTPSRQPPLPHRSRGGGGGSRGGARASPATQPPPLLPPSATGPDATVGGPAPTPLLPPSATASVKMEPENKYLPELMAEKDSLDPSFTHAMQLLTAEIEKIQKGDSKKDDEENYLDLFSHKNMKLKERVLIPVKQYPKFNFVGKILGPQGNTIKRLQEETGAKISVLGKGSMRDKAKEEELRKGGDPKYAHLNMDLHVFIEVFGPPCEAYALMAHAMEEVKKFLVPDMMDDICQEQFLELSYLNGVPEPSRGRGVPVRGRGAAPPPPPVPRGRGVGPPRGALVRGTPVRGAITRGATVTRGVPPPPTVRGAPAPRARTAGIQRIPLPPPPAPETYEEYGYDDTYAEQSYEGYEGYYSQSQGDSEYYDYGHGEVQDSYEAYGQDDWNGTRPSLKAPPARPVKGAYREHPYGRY

Assay in all cases: PRISMA enrichment of interactor (LFQ) in peptide spot vs all other peptide spots (log2 fold change); higher = stronger / more specific binding of the interactor to the peptide
For one experiment, the target named is ALYREF, Q86V81. As for the experimental part:
(§1)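 PRISMA: 15-aa overlapping tiles (offset 8 aa) of 60 microproteins, plus SOS1/GLUT1 control peptides, were spot-synthesized on cellulose membranes in triplicate. Membranes were incubated with benzonase-treated HEK293T lysate, and bound proteins were identified by LC-MS/MS with LFQ. Enrichment is the log2 fold change of each protein in one spot versus all other spots. Only interactors passing the significance cutoff are listed.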

The target in the next experiment is C19orf53, Q9UNZ5. How it is done:
as §1

In another experiment the target is CFAP20, Q9Y6A4. As for the experimental part: as §1
A further experiment addresses CLTA, P09496. As for the experimental part: as §1
The target in a further experiment is CLTB, P09497. How it is done:
as §1

The target in a further experiment is CLTCL1, P53675. As for the experimental part: as §1
The next experiment deals with CSNK1A1, P48729. How it is done:
as §1

For a further experiment, the target named is CSNK1D, P48730. As for the experimental part: as §1
The target in the next experiment is CSNK1E, P49674. How it is done: as §1
For a further experiment, the target named is CXorf56, Q9H5V9. How it is done:
as §1

For the next experiment, the target named is DDX49, Q9Y6V7. How it is done: as §1
A further experiment has as its target DNAJA3, Q96EY1. How it is done:
as §1

A further experiment addresses EMG1, Q92979. How it is done:
as §1

In another experiment the target is EWSR1, Q01844. As for the experimental part: as §1
The target in a further experiment is FIP1L1, Q6UN15. How it is done: as §1
The next experiment deals with FOCAD, Q5VW36. How it is done:
as §1

The next experiment addresses GABARAPL2, P60520. How it is done: as §1
Another experiment concerns the target HAGH, Q16775. As for the experimental part:
as §1

For a further experiment, the target named is LARP7, Q4G0J3. How it is done:
as §1

In another experiment the target is MORF4L2, Q15014. As for the experimental part:
as §1

In a further experiment the target is NUDT16L1, Q9BRJ7. As for the experimental part: as §1
For a further experiment, the target named is PIN1, Q13526. How it is done: as §1
The next experiment concerns the target PLK1, P53350. As for the experimental part:
as §1

Substrate in experiment [1]: PPIF, P30405
How it is done:
as §1

In another experiment the target is PRMT1, Q99873. As for the experimental part: as §1
The next experiment has as its target RAB34. As for the experimental part:
as §1

The next experiment addresses RBMX, P38159. How it is done: as §1
The target in the next experiment is ZNF22, P17026. As for the experimental part: as §1
For another experiment, the target named is ZNF687, Q8N1G0. How it is done:
as §1

A further experiment deals with ATG4B, Q9Y4P1. How it is done:
as §1

A further experiment has as its target CHTOP, Q9Y3Y2. As for the experimental part:
as §1

The target of a further experiment is CKS2, P33552. As for the experimental part:
as §1

Another experiment addresses CSRP2, Q16527. As for the experimental part: as §1
Another experiment concerns the target DDX5, P17844. As for the experimental part: as §1
The next experiment concerns the target FHL1, Q13642. As for the experimental part: as §1
The next experiment concerns the target G3BP2, Q9UN86. As for the experimental part:
as §1

Another experiment deals with GOLIM4, O00461. How it is done:
as §1

The target of the next experiment is HNRNPA0, Q13151. As for the experimental part:
as §1

The target of a further experiment is HNRNPA1, P09651. How it is done:
as §1

The next experiment concerns the target HNRNPA2B1, P22626. As for the experimental part:
as §1

The target of the next experiment is KHDRBS1, Q07666. As for the experimental part: as §1
The target in the next experiment is LSM12, Q3MHD2. How it is done: as §1
In a further experiment the target is MRPL27, Q9P0M9. How it is done: as §1
The next experiment concerns the target PUS1, Q9Y606. As for the experimental part:
as §1

For the molecule MRPVEELWLGTPPLL [NAV2-AS2], the “PRISMA enrichment of interactor (log2)” value with ALYREF, Q86V81 stood at 6.15 ± 1.4; with C19orf53, Q9UNZ5, 7.33; with CFAP20, Q9Y6A4 it was 4.44; with CLTA, P09496, 6.36; with CLTB, P09497, 5.49; with CLTCL1, P53675 it was 4. The “PRISMA enrichment of interactor (log2)” value with CSNK1A1, P48729 was 5.27; with CSNK1D, P48730, 4.98; in the experiment with CSNK1E, P49674, 5.4; with CXorf56, Q9H5V9, 6.53; in the experiment with DDX49, Q9Y6V7, 5.58; with DNAJA3, Q96EY1, 4.67. Further, the “PRISMA enrichment of interactor (log2)” value in the experiment with EMG1, Q92979 turned out to be 5.67; in the experiment with EWSR1, Q01844 it was 5.61; with FIP1L1, Q6UN15, 4.58; in the experiment with FOCAD, Q5VW36, 3.92; with GABARAPL2, P60520, 5.73; in the experiment with HAGH, Q16775, 10. Moreover, the “PRISMA enrichment of interactor (log2)” value with LARP7, Q4G0J3 was found to be 6.34; with MORF4L2, Q15014, 4.83; in the experiment with NUDT16L1, Q9BRJ7, 5.3; in the experiment with PIN1, Q13526, 4.84; with PLK1, P53350, 5.34; in [1], 6.68. The “PRISMA enrichment of interactor (log2)” value with PRMT1, Q99873 was 4.84; with RAB34 it was 3.75; with RBMX, P38159 it was 4.77; with ZNF22, P17026, 4.47; in the experiment with ZNF687, Q8N1G0, 7.44.

Take AAWSFVQVFSEPDGF [PVT1]: the “PRISMA enrichment of interactor (log2)” value in the experiment with ALYREF, Q86V81 was determined as 5.41 ± 0.31; with ATG4B, Q9Y4P1, 6.93; in the experiment with C19orf53, Q9UNZ5, 7.09; with CHTOP, Q9Y3Y2 it was 6.2; with CKS2, P33552, 5.2; with CSRP2, Q16527, 6.07. Besides, the “PRISMA enrichment of interactor (log2)” value with DDX5, P17844 amounted to 6.4; with EWSR1, Q01844, 5.97; with FHL1, Q13642, 4.23; with G3BP2, Q9UN86, 6.05; in the experiment with GABARAPL2, P60520, 5.86; with GOLIM4, O00461, 4.77. The “PRISMA enrichment of interactor (log2)” value with HNRNPA0, Q13151 is 5.75; with HNRNPA1, P09651 it was 5.96; in the experiment with HNRNPA2B1, P22626, 4.7; in the experiment with KHDRBS1, Q07666, 6.37; with LSM12, Q3MHD2, 5.14; in the experiment with MRPL27, Q9P0M9, 8.46. Moreover, the “PRISMA enrichment of interactor (log2)” value in the experiment with PUS1, Q9Y606 was determined as 5.03.

The values are drawn from the supplement of paper PMC10032668.
